{"source": "patent US12421556B2", "about": "“Materials and methods for stratifying and treating cancers” (The Institute of Cancer Research:Royal Cancer Hospital, priority 2017, dated 2025)", "origin": "cited, not measured here", "key": {"[1]": {"tested_on": "malignant rhabdoid tumour cells", "conditions": "cells with high levels of PDGFRA and FGFR1 expression; cited from earlier work"}, "[2]": {"tested_on": "advanced STS", "conditions": "cited from earlier work"}, "[3]": {"tested_on": "pre-treated advanced STS", "conditions": "cited from earlier work"}}, "note": "At least one compound was matched to its structure with a doubt left."}
{"smiles": "Cc1ccc(Nc2nccc(N(C)c3ccc4c(C)n(C)nc4c3)n2)cc1S(N)(=O)=O", "note": "[pazopanib, Pazopanib]", "values": [{"measurement": "sensitivity to pazopanib treatment in vitro", "setting": "[1]", "value": "sensitive"}, {"measurement": "patients with PFS greater than 6 months and OS greater than 18 months", "setting": "[2]; pooled PALETTE and EORTC phase II, 76 of 344 analysed patients", "value": 22, "unit": "%"}, {"measurement": "12 week progression-free survival", "setting": "[2]; single arm phase II trial, adipocytic tumours", "value": 26, "unit": "%"}, {"measurement": "median PFS", "setting": "[3]; pazopanib arm, 800 mg once daily, median follow-up 25 months", "value": 4.6, "unit": "months"}, {"measurement": "difference in overall survival (OS)", "setting": "[3]; pazopanib v. placebo-treated patients", "value": "no significant difference"}]}
